Test results as given in patent publication US11084783B2, “O-alkyl-benzylideneguanidine derivatives and therapeutic use for the treatment of disorders associated with an accumulation of misfolded proteins” (INFLECTIS BIOSCIENCE, priority 2014, dated 2021).
At least one compound was matched to its structure with a doubt left.

System: mouse embryonic fibroblasts lipofected with poly I:C
Assay: In vitro inflammation/infection model: poly I:C induced mouse embryonic fibroblasts
Assay type: cell-based
Settings: 25 μM, 6h, IFN-beta ELISA in culture supernatants
Protocol: Mouse Embryonic Fibroblasts (MEFs) were lipofected with poly I:C and treated with […] compounds of the invention (25 μM) for 6h. After 6h of culture, elF2alpha-phosphorylation (elF2a-P) and PPP1R15A (GADD34) expression was monitored by western blotting, while type-1 Interferon(IFN)-beta production was quantified in culture supernatants by ELISA. Control (nt) and poly I:C/DMSO are respectively negative and positive controls. Poly I:C (polyinosinic:polycytidylic acid or polyinosinic-polycytidylic acid sodium salt) is an immunostimulant used to simulate viral infections. […]
Cells were lysed in 1% Triton X-100, 50 mM Hepes, 10 mM NaCl, 2.5 mM MgCl2, 2 mM EDTA, 10% glycerol, supplemented with Complete Mini Protease Inhibitor Cocktail Tablets (Roche). Protein quantification was performed using the BCA Protein Assay (Pierce). 25-50 μg of Triton X-100-soluble material was loaded on 2%-12% gradient or 8% SDS-PAGE before immunoblotting and chemi-luminescence detection (SuperSignal West Pico Chemi-luminescent Substrate, Pierce). […]
IFN-beta quantification in culture supernatant was performed using the Mouse Interferon Beta ELISA kit (PBL Interferon Source) according to manufacturer instructions. […]

CCSCCONC(=N)N/N=C/c1ccccc1Cl [Compound 15, 2-(2-chlorobenzylidene)-N-[2-(ethylsulfanyl)ethoxy]hydrazinecarboximidamide]
prevention of type-I IFN production (FIG. 9): prevent type-I IFN production
